Source: article PMC7348923

Amino acid sequences for entries named in this document (tags omitted).
UniProt Q90473: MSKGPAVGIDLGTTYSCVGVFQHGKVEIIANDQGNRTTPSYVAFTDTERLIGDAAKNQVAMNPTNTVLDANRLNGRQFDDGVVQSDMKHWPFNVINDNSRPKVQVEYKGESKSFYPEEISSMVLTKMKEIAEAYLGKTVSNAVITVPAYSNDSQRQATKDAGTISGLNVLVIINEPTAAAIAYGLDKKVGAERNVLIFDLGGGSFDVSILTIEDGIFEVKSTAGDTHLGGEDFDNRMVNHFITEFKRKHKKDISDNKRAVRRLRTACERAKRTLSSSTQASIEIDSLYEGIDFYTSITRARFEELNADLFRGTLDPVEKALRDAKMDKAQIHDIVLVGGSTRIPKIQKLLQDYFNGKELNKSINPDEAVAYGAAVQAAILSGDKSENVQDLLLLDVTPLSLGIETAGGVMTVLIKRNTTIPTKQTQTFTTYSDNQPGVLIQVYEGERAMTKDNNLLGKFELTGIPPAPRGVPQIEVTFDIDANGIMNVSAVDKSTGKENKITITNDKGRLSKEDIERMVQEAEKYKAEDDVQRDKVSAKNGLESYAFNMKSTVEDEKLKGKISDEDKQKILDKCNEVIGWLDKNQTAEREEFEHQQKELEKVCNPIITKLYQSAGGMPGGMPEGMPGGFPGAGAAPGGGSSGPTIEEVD
UniProt A0ACM8QCU4: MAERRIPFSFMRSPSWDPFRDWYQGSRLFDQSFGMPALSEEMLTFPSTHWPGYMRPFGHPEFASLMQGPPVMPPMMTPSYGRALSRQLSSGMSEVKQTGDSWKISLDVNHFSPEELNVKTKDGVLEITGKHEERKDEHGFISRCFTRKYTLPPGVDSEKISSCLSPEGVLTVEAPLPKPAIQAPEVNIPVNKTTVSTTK

Biological target: T1, zebrafish Hspb8 (zebrafish (endogenous in 120 hpf larvae)) (UniProt Q6PFS1)
T1 sequence: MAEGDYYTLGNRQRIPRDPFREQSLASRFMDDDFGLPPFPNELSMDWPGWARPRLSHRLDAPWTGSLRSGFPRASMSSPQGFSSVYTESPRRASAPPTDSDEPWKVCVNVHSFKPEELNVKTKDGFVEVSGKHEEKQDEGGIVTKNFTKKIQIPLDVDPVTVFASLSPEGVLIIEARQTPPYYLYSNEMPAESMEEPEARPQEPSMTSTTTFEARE
Test: affinity purification with mass spectrometry; same co-IP eluates (anti-Hspb8 or anti-Bag3 column; lysate of heat-shocked 120 hpf zebrafish larvae) separated by SDS-PAGE, gel fragments cut out and identified by LC-MS-MS/MS (Mascot, NCBI Danio rerio database)

| Substance | binding |
| --- | --- |
| 14-3-3 protein (zebrafish (endogenous in 120 hpf larvae)) | binds |
| Hsc70 (from UniProt Q90473 1-649) | binds |
| zebrafish Bag3 (Bcl2-associated athanogene 3) | binds |
| zebrafish Hspb1 (from UniProt A0ACM8QCU4 1-199) | binds |

No constants are given. Whether binding was seen depends on the method and setting. Binding seen in cells or lysates may run through a third protein. These calls come from enrichment with a bait or labelling near it, and not all partners need be listed.
